According to the supplement of paper PMC8732350:
Where a name gives a salt, the structure may show the parent alone. ± gives the standard deviation of the averaged measurements. This is one part of the list. Single values are uncertain here, since repeats match poorly.

system: A549; assay: surface PD-L1 immunofluorescence intensity relative to IFN-gamma-only control (ratio); higher = more PD-L1 expression; conditions: 10 µM; exposure time 24 h; IFN-gamma 100 ng/mL

| SMILES | surface PD-L1 immunofluorescence intensity |
| --- | --- |
| COC1CCN(C(=O)c2cc(Cc3n[nH]c(=O)c4ccccc34)ccc2F)CC1 | 1.01 |
| C=C(C)[C@@H](CC=C(C)C)C[C@@]12C[C@@H](CC=C(C)C)C(C)(C)[C@@](CC=C(C)C)(C(=O)C(C(=O)c3ccc(O)c(O)c3)=C1O)C2=O [Garcinol] | 1.1 |
| C[N+](C)(C)[C@@H](Cc1c[nH]c(=S)[nH]1)C(=O)[O-] [L-Ergothioneine] | 0.972 |
| Cn1cc(-c2ccncc2)c(-c2ccc(OCc3ccc4ccccc4n3)cc2)n1 | 1.02 |
| O=C(O)[C@H]1O[C@@H](Oc2cc3oc(-c4ccccc4)cc(=O)c3c(O)c2O)[C@H](O)[C@@H](O)[C@@H]1O [Baicalin] | 1.02 |
| Nc1ccc(S(=O)(=O)Nc2ccccn2)cc1 [Sulfapyridine] | 0.98 |
| O=S1(=O)c2cccc3cccc(c23)N1CCCN1CCN(c2ccc(F)cc2)CC1 [Fananserin] | 1.01 |
| Nc1ncnc2c1ncn2C1CCCO1 (configuration not stated) | 1.11 |
| CN(C)CCCN1c2ccccc2Sc2ccc(Cl)cc21 [Chlorpromazine hydrochloride] | 0.802 |
| CCOc1ccccc1OC(c1ccccc1)C1CNCCO1 (configuration not stated) [Reboxetine mesylate] | 0.977 ± 0.024 |
| O=c1[nH]cnc2c1ncn2[C@@H]1O[C@H](CO)[C@@H](O)[C@H]1O [Inosine] | 1.05 |
| CCCCOc1cc(CC2CNC(=O)N2)ccc1OC (configuration not stated) | 0.937 |
| O=C1NC(=O)/C(=C/c2ccc3c(c2)OC(F)(F)O3)S1 | 1.06 |
| O=C(O)c1c(Sc2ccccc2)c2cc(Cl)ccc2n1Cc1ccc(Cl)cc1 | 0.938 |
| CCN(CCO)CCCC(C)Nc1ccnc2cc(Cl)ccc12 (configuration not stated) [Hydroxychloroquine sulfate] | 1 |
| CCN(CCO)CCCC(C)Nc1ccnc2cc(Cl)ccc12 (configuration not stated) [Hydroxychloroquine] | 1.03 |
| Cc1nc(Nc2ncc(C(=O)Nc3c(C)cccc3Cl)s2)cc(N2CCN(CCO)CC2)n1 | 1.1 |
| CCOC(=O)c1c(CSc2ccccc2)n(C)c2cc(Br)c(O)c(CN(C)C)c12 [Arbidol HCl] | 1.03 |
| O=C1C=CC(=O)C2=C1C1c3ccccc3C2c2ccccc21 | 1.01 |
| Cc1nc(-c2ccc(OCC(C)C)c(C#N)c2)sc1C(=O)O [Febuxostat (Uloric)] | 1.12 |
| C[C@@H](O)[C@H]1C(=O)N2C(C(=O)[O-])=C(SC3Cn4cnc[n+]4C3)[C@H](C)[C@H]12 (some centres not stated) [Biapenem] | 0.921 |
| CC(=O)[C@H]1CC[C@H]2[C@@H]3CC=C4C[C@@H](O)CC[C@]4(C)[C@H]3CC[C@]12C [Pregnenolone] | 1.03 ± 0.05 |
| Oc1cc2c(cc1O)[C@@H]1c3ccc(O)c(O)c3OC[C@]1(O)C2 [Hematoxylin (Hydroxybrazilin)] | 0.943 |
| CC(C(=O)O)c1ccc2c(c1)CC(=O)c1ccccc1S2 (configuration not stated) [Zaltoprofen] | 0.987 |
| Cc1ccc2c(=O)c3cccc(CC(=O)O)c3oc2c1C | 0.92 |
| CC(C)(C)c1ccc(C(O)CCCN2CCC(C(O)(c3ccccc3)c3ccccc3)CC2)cc1 (configuration not stated) [Terfenadine] | 0.926 |

No new results follow: an excerpt of the list.

| SMILES | surface PD-L1 immunofluorescence intensity |
| --- | --- |
| O=c1[nH]cnc2c1ncn2[C@@H]1O[C@H](CO)[C@@H](O)[C@H]1O [Inosine] | 1.05 |
| CCCCOc1cc(CC2CNC(=O)N2)ccc1OC (configuration not stated) | 0.937 |
| O=C1NC(=O)/C(=C/c2ccc3c(c2)OC(F)(F)O3)S1 | 1.06 |

Next records:

| SMILES | surface PD-L1 immunofluorescence intensity |
| --- | --- |
| CC(COc1ccccc1)NC(C)C(O)c1ccc(O)cc1 (configuration not stated) [Isoxsuprine hydrochloride] | 0.935 |
| CCCCN1CCCCC1C(=O)Nc1c(C)cccc1C (configuration not stated) [Bupivacaine hydrochloride] | 0.987 |
| CCOC(=O)NNc1nncc2ccccc12 [Todralazine hydrochloride] | 0.917 |
| C=C1C(=O)O[C@@H](CCC)[C@@H]1C(=O)O [Butyrolactone 3] | 1.07 |
| CC[N+](CC)(CC)CC(=O)Nc1c(C)cccc1C [QX 314 bromide] | 1.06 |
| CC[N+](CC)(CC)CC(=O)Nc1c(C)cccc1C [QX 314 chloride] | 0.999 |
| CC[N+](CC)(CC)CC(=O)Nc1c(C)cccc1C [QX-314 bromide] | 0.95 |
| c1ccc(COCCCc2c[nH]cn2)cc1 [Proxyfan Oxalate] | 1.05 |
| COc1cc(-c2ccc(=O)[nH]n2)ccc1OC(F)F [Zardaverine] | 1.06 ± 0.062 |
| CCCCC1(COC(=O)CCC(=O)O)C(=O)N(c2ccccc2)N(c2ccccc2)C1=O [Suxibuzone] | 0.975 |
| CCCCNc1c(C(=O)OCC)c(C)nc2c1cnn2CC [Tracazolate hydrochloride] | 1.03 ± 0.02 |
| CN(C)[C@@H]1C(O)=C(C(N)=O)C(=O)[C@@]2(O)C(O)=C3C(=O)c4c(O)cccc4[C@@](C)(O)[C@H]3[C@H](O)[C@@H]12 [Oxytetracycline (Terramycin)] | 0.895 |
| CN(C)[C@@H]1C(O)=C(C(N)=O)C(=O)[C@@]2(O)C(O)=C3C(=O)c4c(O)cccc4[C@@](C)(O)[C@H]3[C@H](O)[C@@H]12 [Oxytetracycline dihydrate] | 1.034 ± 0.0057 |
| OC(CN1CCN(c2cccc(Cl)c2)CC1)C(c1ccccc1)c1ccccc1 (configuration not stated) | 1.15 |
| CC/C(=C(/CC)c1ccc(O)cc1)c1ccc(O)cc1 [Diethylstilbestrol] | 1.02 |
| CC1=C(/C=C/C(C)=C/C=C/C(C)=C\C(=O)O)C(C)(C)CCC1 [13-cis Retinoic acid] | 0.932 |
| CC1=C(/C=C/C(C)=C/C=C/C(C)=C\C(=O)O)C(C)(C)CCC1 [Isotretinoin] | 0.984 |
| Cl.N=C(N)NCCC[C@H](N)C(=O)O [L-Arginine HCl] | 0.933 |
| CC(C)(Sc1ccc(CCN(CCCCC2CCCCC2)C(=O)NC2CCCCC2)cc1)C(=O)O | 0.969 ± 0.12 |
| CSc1ccc2c(c1)N(CCC1CCCCN1C)c1ccccc1S2 (configuration not stated) [Thioridazine hydrochloride] | 0.83 |
| NC(N)=Nc1nc(CSCC/C(N)=N/S(N)(=O)=O)cs1 [Famotidine] | 0.881 |
| Nc1nc(NC2CC2)c2ncn([C@H]3C=C[C@@H](CO)C3)c2n1 [Abacavir Sulfate] | 1.02 |
| CCN(CC)CCNc1ccc(CO)c2sc3ccccc3c(=O)c12 [Hycanthone] | 1.12 |
| CN(Cc1cnc2nc(N)nc(N)c2n1)c1ccc(C(=O)N[C@@H](CCC(=O)O)C(=O)O)cc1 [Methotrexate] | 0.934 |
| O=C(COc1ccc(Cl)cc1)N1CCN(Cc2ccc3c(c2)OCO3)CC1 [Fipexide hydrochloride] | 0.972 |
| CNC(C)CCC=C(C)C (configuration not stated) [Isometheptene mucate] | 0.91 |
